Patent publication US20170168078A1
No constants are given. Whether binding was seen depends on the method and setting.

The chains behind the UniProt entries cited, without tags or fusion partners. Residues count along the entry.
UniProt P14207, residues 17-230: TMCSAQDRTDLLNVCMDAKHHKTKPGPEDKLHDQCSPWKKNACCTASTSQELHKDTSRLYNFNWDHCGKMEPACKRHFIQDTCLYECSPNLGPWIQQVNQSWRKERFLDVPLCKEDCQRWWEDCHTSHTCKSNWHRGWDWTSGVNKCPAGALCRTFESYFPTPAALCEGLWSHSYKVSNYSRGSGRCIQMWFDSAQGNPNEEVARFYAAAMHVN

Biological target: human folate receptor beta (FRβ) expressed on CHO cells (human) (UniProt P14207)
Assay: western blot of nonreduced whole cell lysates of CHO cells, SDS-PAGE

B1: Monoclonal antibody 19D4.B7 (antibody, mouse IgG2a, V domains shown)
VH: GAELVKPGASVKLSCTASGFNIKHPYMHWVKQRPDQGLEWIGRIDPANGNTKYDPKFQGKATITADTSSNTAYLQLSSLTSEDTAVYYCGREEVADYTMDYWGQGTSVTVSS
VL: PASLAVSLGQRATISCRASESVDTYGNNFIHWYQQKPGQPPKLLIYLASNLESGVPARFSGSGSRTDFTLTIDPVEADDAATYYCQQNNGDPWTFGGGTKLEIKR
binding: no binding (tested: 1 µg/mL)
